Test system: monoclonal antibody which had no specificity towards amino acid residue 6 and weakly recognized amino acid residue 1 of CsA
Test: RIA recognition by nonspecific monoclonal antibody
Assay type: binding
Settings: RIA of gradient HPLC fractions of bile

Structure (SMILES) | Recognition by nonspecific monoclonal antibody | Recognition by nonspecific monoclonal antibody (listed as CM-H)
C/C=C/C[C@@H](C)[C@@H](O)[C@H]1C(=O)N[C@@H](CC)C(=O)N(C)CC(=O)N(C)[C@@H](CC(C)C)C(=O)N[C@@H](C(C)C)C(=O)N(C)[C@@H](CC(C)C)C(=O)N[C@@H](C)C(=O)N[C@H](C)C(=O)N(C)[C@@H](CC(C)(C)O)C(=O)N[C@@H](CC(C)C)C(=O)N(C)[C@@H](C(C)C)C(=O)N1C [CM Peak H] | not detected | unreactive
C/C=C/C[C@@H](C)[C@@H](O)[C@H]1C(=O)N[C@@H](CC)C(=O)N(C)CC(=O)N(C)[C@@H](CC(C)C)C(=O)N[C@@H](C(C)C)C(=O)N(C)[C@@H](CC(C)C)C(=O)N[C@@H](C)C(=O)N[C@H](C)C(=O)N(C)[C@@H](CC(C)(C)O)C(=O)N(C)[C@@H](CC(C)C)C(=O)N(C)[C@@H](C(C)C)C(=O)N1C [OL-1, 9-hydroxy cyclosporine A] | very clearly recognized | –
CC[C@@H]1NC(=O)[C@H]([C@H](O)[C@H](C)C/C=C/CO)N(C)C(=O)[C@H](C(C)C)N(C)C(=O)[C@H](CC(C)C)N(C)C(=O)[C@H](CC(C)(C)O)N(C)C(=O)[C@@H](C)NC(=O)[C@H](C)NC(=O)[C@H](CC(C)C)N(C)C(=O)[C@H](C(C)C)NC(=O)[C@H](CC(C)C)N(C)C(=O)CN(C)C1=O [OL-8, 1,9 dihydroxy cyclosporine A] | very clearly recognized | –
CC[C@@H]1NC(=O)[C@H]([C@H](O)[C@H](C)C/C=C/CO)N(C)C(=O)[C@H](C(C)C)N(C)C(=O)[C@H](CC(C)C)N(C)C(=O)[C@H](CC(C)C)N(C)C(=O)[C@@H](C)NC(=O)[C@H](C)NC(=O)[C@H](CC(C)C)N(C)C(=O)[C@H](C(C)C)NC(=O)[C@H](CC(C)C)N(C)C(=O)CN(C)C1=O [OL-17, 1-hydroxy cyclosporine A] | very clearly recognized | –

From patent US5202310A, “Cyclosporine metabolites” (priority 1990, dated 1993)
